Results on 3 molecules are retold here after publication PMC4716841, “Attenuation of AMPK signaling by ROQUIN promotes T follicular helper cell formation” (eLife, 2015).

The chains behind the UniProt entries cited, without tags or fusion partners.
UniProt Q5EG47: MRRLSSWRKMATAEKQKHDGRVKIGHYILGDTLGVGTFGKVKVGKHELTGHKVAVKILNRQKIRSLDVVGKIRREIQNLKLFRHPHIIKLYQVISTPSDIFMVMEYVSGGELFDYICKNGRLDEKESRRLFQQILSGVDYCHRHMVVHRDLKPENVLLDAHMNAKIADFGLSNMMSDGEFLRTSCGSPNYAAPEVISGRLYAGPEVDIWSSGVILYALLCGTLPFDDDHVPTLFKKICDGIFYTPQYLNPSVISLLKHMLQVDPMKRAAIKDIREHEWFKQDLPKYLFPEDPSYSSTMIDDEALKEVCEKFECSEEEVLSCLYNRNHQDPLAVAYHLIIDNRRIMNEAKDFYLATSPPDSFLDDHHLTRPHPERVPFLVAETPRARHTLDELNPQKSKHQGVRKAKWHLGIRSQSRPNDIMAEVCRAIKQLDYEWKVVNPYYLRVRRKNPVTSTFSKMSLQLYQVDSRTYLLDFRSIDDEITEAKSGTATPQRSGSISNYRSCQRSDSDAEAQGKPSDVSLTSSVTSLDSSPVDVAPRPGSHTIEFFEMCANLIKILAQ

No constants are given. Whether binding was seen depends on the method and setting. In cells and extracts the contact can be indirect. Some results given as binding are weak or reduced against the parent protein; the word gives no strength. For some of these results: Where a sequence is shown, tags or fusion partners need not be part of it.

The target of experiment [1] is AMPKα1, endogenous (mouse), catalytic α1 subunit of adenosine monophosphate-activated protein kinase (mouse (endogenous in primary C57BL/6 MEFs and EL4 cells)) (UniProt Q5EG47). Put plainly: proximity ligation; in situ PLA on primary C57BL/6 MEFs, endogenous proteins; goat anti-AMPKα1 (C20) with rabbit anti-ROQUIN, overnight at 4°C; resting cells or 1 mM arsenite for 1 hr; control PLA GFP:AMPKα1.

For experiment [2] the target is unchanged. Put plainly: co-IP; reciprocal co-IP of endogenous proteins from EL4 cell lysate; TNE lysis buffer (1% NP40, 150 mM NaCl, 20 mM Tris-base, 1 mM EDTA), Protein G Sepharose 12 hr.
Experiment [3] addresses AMPKα1-GFP (UniProt Q5EG47). Description: co-IP; reciprocal co-IP from lysates of transfected HEK293T cells over-expressing both proteins; TNE lysis buffer (1% NP40, 150 mM NaCl, 20 mM Tris-base, 1 mM EDTA), Protein G Sepharose 12 hr.

B1: ROQUIN, endogenous (mouse) (natural protein, UniProt Q4VGL6 1-1130, looked up)
chain: MPVQAPQWTDFLSCPICTQTFDETIRKPISLGCGHTVCKMCLNKLHRKACPFDQTTINTDIELLPVNSALLQLVGAQIPEQQPITLCSGVEDTKHYEEAKKCVEELALYLKPLSSARGVGLNSTTQSVLSRPMQRKLVTLVHCQLVEEEGRIRAMRAARSLGERTVTELILQHQNPQQLSSNLWAAVRARGCQFLGPAMQEEALKLVLLALEDGSALSRKVLVLFVVQRLEPRFPQASKTSIGHVVQLLYRASCFKVTKRDEDSSLMQLKEEFRTYEALRREHDSQIVQIAMEAGLRIAPDQWSSLLYGDQSHKSHMQSIIDKLQTPASFAQSVQELTIALQRTGDPANLNRLRPHLELLANIDPSPDAPPPTWEQLENGLVAVRTVVHGLVDYIQNHSKKGADQQQPPQHSKYKTYMCRDMKQRGGCPRGASCTFAHSQEELEKFRKMNKRLVPRRPLSASLGQLNEVGLPSAPILSDESAVDLSNRKPPALPNGIASSGSTVTQLIPRGTDPSFDSSLKPVKLDHLSSSAPGSPPDLLESAPKSISALPVNPHPVPPRGPTDLPPMPVTKPIQMVPRGSQLYPAQQADVYYQDPRGSAPAFETAPYQQGMYYTPPPCVSRFVRPPPSAPEPGPPYLDHYSPYLQDRVINSQYGTQPQQYPPMYPAHYDGRRVYPAQSYTREEMFRESPIPIDIPSAAVPSYVPESRERYQQVEGYYPVAPHPAQIRPSYPRDPPYSRLPPPQPHPSLDELHRRRKEIMAQLEERKVISPPPFAPSPTLPPAFHPEEFLDEDLKVAGKYKANDYSQYSPWSCDTIGSYIGTKDAKPKDVVAAGSVEMMNVESKGTREQRLDLQRRAVETSDDDLIPFGDRPTVSRFGAISRTSKTLYQGAGPLQAIAPQGAPTKSINISDYSAYGAHGGWGDSPYSPHANIPPQGHFIEREKMSMAEVASHGKPLLSAEREQLRLELQQLNHQISQQTQLRGLEAVSNRLVLQREVNTLASQPQPPQLPPKWPGMISSEQLSLELHQVEREIGKRTRELSMENQCSVDMKSKLGTSKQAENGQPEPQNKIRTEDLTLTFSDVPNGSALTQENLSLLSNKTSSLNLSEDSEGGGDNNDSQRSGVVSNSAP
notes: ROQUIN (ROQUIN1), encoded by Rc3h1, endogenous in mouse cells; also called ROQUIN1; encoded by Rc3h1; source: endogenous, primary C57BL/6 MEFs (in situ); endogenous, EL4 cell lysate
On to B1, for which the binding entry in experiment [1] and in experiment [2] was “binds” each time.

B2: V5-ROQUIN, full length (ROQUIN 1-1130) (protein, UniProt Q4VGL6 1-1130)
chain: MPVQAPQWTDFLSCPICTQTFDETIRKPISLGCGHTVCKMCLNKLHRKACPFDQTTINTDIELLPVNSALLQLVGAQIPEQQPITLCSGVEDTKHYEEAKKCVEELALYLKPLSSARGVGLNSTTQSVLSRPMQRKLVTLVHCQLVEEEGRIRAMRAARSLGERTVTELILQHQNPQQLSSNLWAAVRARGCQFLGPAMQEEALKLVLLALEDGSALSRKVLVLFVVQRLEPRFPQASKTSIGHVVQLLYRASCFKVTKRDEDSSLMQLKEEFRTYEALRREHDSQIVQIAMEAGLRIAPDQWSSLLYGDQSHKSHMQSIIDKLQTPASFAQSVQELTIALQRTGDPANLNRLRPHLELLANIDPSPDAPPPTWEQLENGLVAVRTVVHGLVDYIQNHSKKGADQQQPPQHSKYKTYMCRDMKQRGGCPRGASCTFAHSQEELEKFRKMNKRLVPRRPLSASLGQLNEVGLPSAPILSDESAVDLSNRKPPALPNGIASSGSTVTQLIPRGTDPSFDSSLKPVKLDHLSSSAPGSPPDLLESAPKSISALPVNPHPVPPRGPTDLPPMPVTKPIQMVPRGSQLYPAQQADVYYQDPRGSAPAFETAPYQQGMYYTPPPCVSRFVRPPPSAPEPGPPYLDHYSPYLQDRVINSQYGTQPQQYPPMYPAHYDGRRVYPAQSYTREEMFRESPIPIDIPSAAVPSYVPESRERYQQVEGYYPVAPHPAQIRPSYPRDPPYSRLPPPQPHPSLDELHRRRKEIMAQLEERKVISPPPFAPSPTLPPAFHPEEFLDEDLKVAGKYKANDYSQYSPWSCDTIGSYIGTKDAKPKDVVAAGSVEMMNVESKGTREQRLDLQRRAVETSDDDLIPFGDRPTVSRFGAISRTSKTLYQGAGPLQAIAPQGAPTKSINISDYSAYGAHGGWGDSPYSPHANIPPQGHFIEREKMSMAEVASHGKPLLSAEREQLRLELQQLNHQISQQTQLRGLEAVSNRLVLQREVNTLASQPQPPQLPPKWPGMISSEQLSLELHQVEREIGKRTRELSMENQCSVDMKSKLGTSKQAENGQPEPQNKIRTEDLTLTFSDVPNGSALTQENLSLLSNKTSSLNLSEDSEGGGDNNDSQRSGVVSNSAP
Take B2: the binding result in experiment [3] was “binds”.

B3: V5-ROQUIN^133-1130 (RING-deleted ROQUIN) (domain or fragment, UniProt Q4VGL6 133-1130)
chain: MQRKLVTLVHCQLVEEEGRIRAMRAARSLGERTVTELILQHQNPQQLSSNLWAAVRARGCQFLGPAMQEEALKLVLLALEDGSALSRKVLVLFVVQRLEPRFPQASKTSIGHVVQLLYRASCFKVTKRDEDSSLMQLKEEFRTYEALRREHDSQIVQIAMEAGLRIAPDQWSSLLYGDQSHKSHMQSIIDKLQTPASFAQSVQELTIALQRTGDPANLNRLRPHLELLANIDPSPDAPPPTWEQLENGLVAVRTVVHGLVDYIQNHSKKGADQQQPPQHSKYKTYMCRDMKQRGGCPRGASCTFAHSQEELEKFRKMNKRLVPRRPLSASLGQLNEVGLPSAPILSDESAVDLSNRKPPALPNGIASSGSTVTQLIPRGTDPSFDSSLKPVKLDHLSSSAPGSPPDLLESAPKSISALPVNPHPVPPRGPTDLPPMPVTKPIQMVPRGSQLYPAQQADVYYQDPRGSAPAFETAPYQQGMYYTPPPCVSRFVRPPPSAPEPGPPYLDHYSPYLQDRVINSQYGTQPQQYPPMYPAHYDGRRVYPAQSYTREEMFRESPIPIDIPSAAVPSYVPESRERYQQVEGYYPVAPHPAQIRPSYPRDPPYSRLPPPQPHPSLDELHRRRKEIMAQLEERKVISPPPFAPSPTLPPAFHPEEFLDEDLKVAGKYKANDYSQYSPWSCDTIGSYIGTKDAKPKDVVAAGSVEMMNVESKGTREQRLDLQRRAVETSDDDLIPFGDRPTVSRFGAISRTSKTLYQGAGPLQAIAPQGAPTKSINISDYSAYGAHGGWGDSPYSPHANIPPQGHFIEREKMSMAEVASHGKPLLSAEREQLRLELQQLNHQISQQTQLRGLEAVSNRLVLQREVNTLASQPQPPQLPPKWPGMISSEQLSLELHQVEREIGKRTRELSMENQCSVDMKSKLGTSKQAENGQPEPQNKIRTEDLTLTFSDVPNGSALTQENLSLLSNKTSSLNLSEDSEGGGDNNDSQRSGVVSNSAP
In the case of B3, the binding result in experiment [3] is “binds”.
